Assay results taken from paper PMC10163288.
This is one part of the list.

B1: il10ra_site1_normal_mot_HHH_b1_07380_000000129_0001_1_20_H_._HHH_b1_06779_0001_0000200024_0000001_0 (protein)
chain: SSSSTEDHEIYKLSREVAELIAEGDEEEAEELLEEAIKYAREVGNRNMLFNLEHLEKILESSSSS
B2: il10ra_site1_sap_25_mot_HHH_b2_05323_000000159_0001_1_18_H_._HHH_b1_07802_0001_0000300036_0000001_0_0001 (protein)
chain: SSSSSEDEERREELEREAKELEEEGDPEEAARVLFEAARLAAELHDRELAERLVEEFIRLSSSSS
B3: il10ra_site1_sap_19_mot_HHH_b1_05860_000000142_0001_1_19_H_._HHH_b1_07641_0002_0000400026_0000002_0_0001 (protein)
chain: SSSSDEEVEELFEQAEEALKEGDSEKALRLVWRAVHLAAELDDRELYEEIYELLHKIANASSSSS
B4: il10ra_site1_sap_25_mot_HHH_b1_04100_af2_000000180_0001_1_19_H_._HHH_b1_04026_0001_0000100001_0000003_0_0001 (protein)
chain: SSSSNLERHIEHMLRAIEHARKAGDEEYVRLALKFVKASAEANNDEEAERLVEELEERLRSSSSS
B5: il10ra_site1_sap_24_mot_HHH_b2_02386_000000054_0001_1_20_H_._HHH_b2_03865_af2_0001_0000300025_0000002_0_0001 (protein)
chain: SSSSSEEEEELERLLERIEELLKNGNPEEALEVIQEALHLAFQLSDEETLRELWELAKEVASSSS
B6: il10ra_site1_normal_mot_HHH_b2_06795_000000133_0001_42_56_H_._HHH_b2_02785_0001_0000100001_0000001_0 (protein)
chain: SSSSDEERRRISEIFQRASKLIREGDEEEVRKLIEELERLAEELNDERAKQAVRFLKLLLSSSSS
B7: il10ra_site1_sap_14_mot_47763b419dcba15278d0659274068abf_0001_af2_000000068_0001_35_48_H_._HHH_b1_06234_0001_0000300013_0000001_0_0001 (protein)
chain: SSSSDEIQRVAELTLEAFRLALRGNPEEAEKVLEEAEELAEKSNDPRAERMIRDLLKAIRASSSS
B8: il10ra_site1_normal_mot_HHH_b1_01827_000000263_0001_1_19_H_._HHH_b2_04613_af2_0001_0000300016_0000001_0 (protein)
chain: SSSSTTELFERVRELIERASELFREGNPEEARELLEEARELAEEANNELLRFSVEHALRALSSSS
B9: il10ra_site1_sap_25_mot_HHH_b1_01779_000000096_0001_43_57_H_._HHH_b2_01312_af2_0001_0000400022_0000001_0_0001 (protein)
chain: SSSSDELLQRALELFQRAFRLALRGNPEEARELAEEAEELAEEANDERLLKMIRDLLESLSSSSS
B10: il10ra_site1_normal_mot_3af0db62db2b275566dae2e03bf881fa_0001_000000003_0001_37_50_H_._HHH_b1_07148_af2_0001_0000600029_0000001_0_af2pred_0001 (protein)
chain: SSSSSSQEELVLEAILYAARFTPDPEAARALLEFAVRLAREVGNEELLEEAEELLEELNSSSSSS
B11: il10ra_site1_normal_mot_HHH_b2_07144_000000289_0001_1_18_H_._HHH_b1_03935_0001_0000100008_0000001_1 (protein)
chain: SSSSSEEAEELYELSREVAHLHREGDEEEAKRLLEEAIELAEELGNFNILFALELLLRQLSSSSS
B12: il10ra_site1_sap_19_mot_HHH_b1_00329_000000081_0001_1_16_H_._HHH_b1_03754_0001_0000500040_0000001_1_0001 (protein)
chain: SSSSSEEVEEEVERLLEEAEKVDAQEMFKLLEKAIELATKNNDPELVRKVMEALHKLLHNSSSSS
B13: il10ra_site1_normal_mot_HHH_b1_06994_000000193_0001_40_55_H_._HHH_b1_04886_0001_0000200028_0000001_0 (protein)
chain: SSSSDQEEELVRAALRLVEQVRENGDPRAARFLLWSARFLAEEINNPELLREVEELEEELNSSSS
B14: il10ra_site1_sap_25_mot_HHH_b1_02999_af2_000000239_0001_42_56_H_._HEEHE_1486_0001_0000400041_0000002_0_0001 (protein)
chain: SSSSSEEEIEKLLEELERLIEEGDEEEALHLALRILRLIYRLGNWELLRELWRLLEELRESSSSS
B15: il10ra_site1_sap_17_mot_b26a303360aa2756ef5b79665ce52f45_0001_000000179_0001_1_11_H_._HHH_b2_06946_0001_0000400005_0000001_0_0001 (protein)
chain: SSSSTAAEELVESALESARIARERNNEEYLRLALRYARNTAENHNNEELRELVEKVEEELHSSSS
B16: il10ra_site1_normal_mot_HHH_b1_01821_000000158_0001_23_39_H_._HHH_b1_08068_af2_0001_0000200003_0000001_0 (protein)
chain: SSSSSDEEEEVRELLEEAEQIEDHEERLEVLLKALRLAIELNNPELLQEVWEVFRRLAGSSSSSS
B17: il10ra_site1_normal_mot_HHH_b2_05323_000000159_0001_1_18_H_._HHH_b2_08300_0001_0000100006_0000001_0 (protein)
chain: SSSSSSDEVLELSLEAFRLALRGNPEEARKVLEEALELAEEDGDERLLRVLRHLLDVLSSSSSSS
B18: il10ra_site1_normal_mot_HHH_b1_01880_000000285_0001_23_39_H_._ems_3hC_921_af2_0001_0000800051_0000001_0_af2pred_0001 (protein)
chain: SSPEEAKKLLEEAEKLAEEQNDEHLRIAVRFWKDLLEEAAELNDEHAVEAVRWAAEALLEALKTS
B19: il10ra_site1_sap_23_mot_6792f2186577ebd01aa11eb855ed7b57_0001_af2_000000149_0001_1_16_H_._HHH_b1_03116_af2_0001_0000300011_0000002_0_0001 (protein)
chain: SSSSSDEEEEEVEELLEEAKRIEDPRERAEVLAEALRVASEGKNPELLRLVDRVAIELYWSSSSS
B20: il10ra_site1_normal_mot_HHH_b1_05704_af2_000000048_0001_1_18_H_._HHH_b1_02442_0001_0000300018_0000002_0 (protein)
chain: SSSSSSLQEAYEAAERAAELLQEGNREEAEELLREVLERLEELGNELAEFVIRHLVRALASSSSS
B21: il10ra_site1_sap_24_mot_HHH_b1_03559_000000151_0001_22_39_H_._HHH_b1_04589_0001_0000100002_0000001_0_0001 (protein)
chain: SSSSDWFEELAELLRELMRAKTEEEFEELSRLVEEVAEKANNELARWQVRFVVELVERELSSSSS
B22: il10ra_site1_normal_mot_HHH_b2_08186_000000021_0001_43_56_H_._HHH_b1_08296_af2_0001_0000300006_0000001_0 (protein)
chain: SSSSSEEEREIEELREELKELAEKGDRERFNRVYQRILQLVYLLGDAELLQELWELLKKLESSSS
B23: il10ra_site1_sap_24_mot_HHH_b1_08440_000000140_0001_1_20_H_._HHH_b1_07647_0001_0000200002_0000001_0_0001 (protein)
chain: SSSSSTTEELYELLREAIELLSEGNPEEAEKIAEELLREAEEAGNWAFVHVARLILRLAGSSSSS
B24: il10ra_site1_normal_mot_HHH_b1_03031_af2_000000117_0001_17_33_H_._HHH_b2_01802_af2_0001_0000100002_0000001_0 (protein)
chain: SSSSDEEEEEAKELLEEAKQIEDPEEARKLVQRALWLAARAKDDELSVEAIRLLAELLQGSSSSS
B25: il10ra_site1_normal_mot_HHH_b2_07521_000000141_0001_20_37_H_._HHH_b1_05319_0001_0000200015_0000001_0_af2pred_0001 (protein)
chain: SSSSSRDEEAVRLSLRIAKFLAEQGDPEAARFILKAAKELAKKFNNEELKELIEEVEERISSSSS
B26: il10ra_site1_sap_25_mot_HHH_b1_03574_000000194_0001_1_18_H_._HHH_b1_02077_0001_0000200019_0000001_0_0001 (protein)
chain: SSSSSEEHRELFELSRRAAELLSEGNPEEAEEVLEEARRLAEEANNQLMLINIRYLLKDLNSSSS
B27: il10ra_site1_normal_mot_HHH_b2_07144_000000289_0001_1_18_H_._HHH_b2_07029_0001_0000100001_0000001_0 (protein)
chain: SSSSTEELEEVYRLSREAAELLREGNPEEAEEVAREALRLAEENNSPAFVFALRHLIRDISSSSS
B28: il10ra_site1_sap_13_mot_HHH_b2_04993_000000082_0001_43_55_H_._0a28df53656836c8faf163f96bad2529_0001_1_af2_0001_0000100004_0000002_0_0001_af2pred_0001 (protein)
chain: SSSSDEEEERLEELLEEVEELLRQGDPEEAARLLFEVAKLAAELNDDEILKLVQELVHLLFSSSS
B29: il10ra_site1_normal_mot_HHH_b1_05056_000000217_0001_1_20_H_._HHH_b2_04661_af2_0001_0000500034_0000002_0 (protein)
chain: SSSSDEEELEELLEKLEELAEKGDRERFLELVLRLSELIFRLGDKEALQRLWELVREFLRRSSSS
B30: il10ra_site1_normal_mot_HHH_b2_00984_000000042_0001_1_20_H_._HHH_b2_03105_af2_0001_0000300022_0000001_0 (protein)
chain: SSSSDEEEELERLLEKLEELLEEGDPHKISRLAQRVIRLATRLNDPEALKKAWEIIKKADSSSSS
B31: il10ra_site1_sap_11_mot_HHH_b1_05357_000000034_0001_23_39_H_._HHH_b2_04001_0001_0000100005_0000001_0_0001 (protein)
chain: SSSSDELVRRIYELLRELVELVHEGDEEEVERVYEEIKELLEQLGSPVLEKILEMLEKVLNSSSS
B32: il10ra_site1_normal_mot_HHH_b1_06788_af2_000000238_0001_19_36_H_._HHH_b2_00174_0001_0000100003_0000001_0 (protein)
chain: SSSSDVARRVYELAREIAEVINEGDEERARELLEELEELAEEANNFIAKFLVEILKRALESSSSS
B33: il10ra_site1_normal_mot_HHH_b2_06602_000000226_0001_1_16_H_._HHH_b2_07200_af2_0001_0000400022_0000001_0_af2pred_0001 (protein)
chain: SSSSNEEEERLLELYIRAYRLLERGNPEEAEKLVEEAEELAKELGDEAARFALELLKRLLSSSSS
B34: il10ra_site1_normal_mot_1cde5897893f3d1588f92be3b001cdf2_0001_af2_000000130_0001_54_65_H_._HHH_b1_04438_af2_0001_0000700007_0000002_0 (protein)
chain: SSSSDEEELKKLEEELEEALKEGDEELILQLVLELSRLAIQLNDHEATELVLEAARLVKEASSSS
B35: il10ra_site1_normal_mot_HHH_b1_03782_000000126_0001_43_57_H_._HHH_b1_06763_0001_0000200021_0000001_1_af2pred_0001 (protein)
chain: SSSSDKEEEIEELLERIERLQEEGNPEEAFKLIIKAAELIRELGDEELLRELRRVLKRILSSSSS
B36: il10ra_site1_sap_11_mot_HHH_b1_05357_000000034_0001_23_39_H_._HHH_b1_01022_0001_0000300019_0000001_0_0001 (protein)
chain: SSSSSDREEVYRLLEEAIKLRREGNPEEAEKVLERAREIAEELGDRVLLMVIEFLEEQIQRSSSS
B37: il10ra_site1_sap_26_mot_HHH_b2_03531_000000286_0001_43_57_H_._HHH_b2_05322_0001_0000100001_0000001_0_0001_af2pred_0001 (protein)
chain: SSSSDEEELEELIRQIERAIEEGDTEEAQRLLRELVELARKLNDPEVLRIARELSRLIVEKSSSS

What follows are binders tested against il10ra, Q13651 (assay: yeast display titration).

Apparent Kd, inactive:
B1 no binding seen
B2 no binding seen
B3 no binding seen
B4 no binding seen
B5 no binding seen
B6 no binding seen
B7 no binding seen
B8 no binding seen
B9 no binding seen
B10 no binding seen
B11 no binding seen
B12 no binding seen
B13 no binding seen
B14 no binding seen
B15 no binding seen
B16 no binding seen
B17 no binding seen
B18 no binding seen
B19 no binding seen
B20 no binding seen
B21 no binding seen
B22 no binding seen
B23 no binding seen
B24 no binding seen
B25 no binding seen
B26 no binding seen
B27 no binding seen
B28 no binding seen
B29 no binding seen
B30 no binding seen
B31 no binding seen
B32 no binding seen
B33 no binding seen
B34 no binding seen
B35 no binding seen
B36 no binding seen
B37 no binding seen

Pulled one by one from the list above:
Apparent Kd, inactive:
B19 no binding seen
B31 no binding seen
